Results from the supplement of paper PMC12067093, “Discovery and optimisation of a covalent ligand for TRIM25 and its application to targeted protein ubiquitination” (Chemical Science, 2025).
This is one part of the list.

Amino acid sequences for entries named in this document (tags omitted). A change or cut given only in a name is not applied to a line headed by its entry.
UniProt Q9NR30: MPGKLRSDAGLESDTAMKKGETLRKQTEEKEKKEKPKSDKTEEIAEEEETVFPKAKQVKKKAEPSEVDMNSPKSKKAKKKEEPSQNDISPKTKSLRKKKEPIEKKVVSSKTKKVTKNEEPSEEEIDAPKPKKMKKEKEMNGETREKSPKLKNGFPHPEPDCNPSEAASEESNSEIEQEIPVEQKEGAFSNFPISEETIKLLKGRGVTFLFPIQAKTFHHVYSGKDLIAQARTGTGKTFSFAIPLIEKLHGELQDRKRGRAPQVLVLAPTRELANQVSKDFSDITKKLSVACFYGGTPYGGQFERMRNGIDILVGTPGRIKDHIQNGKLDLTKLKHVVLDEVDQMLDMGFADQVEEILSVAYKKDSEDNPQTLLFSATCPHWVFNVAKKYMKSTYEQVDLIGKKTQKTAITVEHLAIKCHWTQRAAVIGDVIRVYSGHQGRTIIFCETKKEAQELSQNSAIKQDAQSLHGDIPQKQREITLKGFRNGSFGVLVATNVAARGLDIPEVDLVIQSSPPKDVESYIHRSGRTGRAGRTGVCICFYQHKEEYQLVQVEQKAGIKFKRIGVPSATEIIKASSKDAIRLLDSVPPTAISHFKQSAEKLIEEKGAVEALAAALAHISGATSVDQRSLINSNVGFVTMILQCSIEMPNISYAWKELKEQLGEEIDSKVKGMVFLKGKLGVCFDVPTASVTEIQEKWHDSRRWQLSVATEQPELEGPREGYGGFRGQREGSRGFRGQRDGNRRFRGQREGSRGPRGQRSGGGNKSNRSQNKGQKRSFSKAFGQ
UniProt Q16698: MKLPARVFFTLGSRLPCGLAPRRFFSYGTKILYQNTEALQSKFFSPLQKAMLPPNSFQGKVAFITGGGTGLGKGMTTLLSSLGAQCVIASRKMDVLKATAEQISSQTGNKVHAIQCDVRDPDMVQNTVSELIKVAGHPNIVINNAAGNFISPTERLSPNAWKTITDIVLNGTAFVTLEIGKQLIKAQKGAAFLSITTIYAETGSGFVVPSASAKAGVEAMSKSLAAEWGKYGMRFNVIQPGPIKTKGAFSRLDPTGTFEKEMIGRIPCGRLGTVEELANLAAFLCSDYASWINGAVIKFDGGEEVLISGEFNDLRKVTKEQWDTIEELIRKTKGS
UniProt Q9NVP1: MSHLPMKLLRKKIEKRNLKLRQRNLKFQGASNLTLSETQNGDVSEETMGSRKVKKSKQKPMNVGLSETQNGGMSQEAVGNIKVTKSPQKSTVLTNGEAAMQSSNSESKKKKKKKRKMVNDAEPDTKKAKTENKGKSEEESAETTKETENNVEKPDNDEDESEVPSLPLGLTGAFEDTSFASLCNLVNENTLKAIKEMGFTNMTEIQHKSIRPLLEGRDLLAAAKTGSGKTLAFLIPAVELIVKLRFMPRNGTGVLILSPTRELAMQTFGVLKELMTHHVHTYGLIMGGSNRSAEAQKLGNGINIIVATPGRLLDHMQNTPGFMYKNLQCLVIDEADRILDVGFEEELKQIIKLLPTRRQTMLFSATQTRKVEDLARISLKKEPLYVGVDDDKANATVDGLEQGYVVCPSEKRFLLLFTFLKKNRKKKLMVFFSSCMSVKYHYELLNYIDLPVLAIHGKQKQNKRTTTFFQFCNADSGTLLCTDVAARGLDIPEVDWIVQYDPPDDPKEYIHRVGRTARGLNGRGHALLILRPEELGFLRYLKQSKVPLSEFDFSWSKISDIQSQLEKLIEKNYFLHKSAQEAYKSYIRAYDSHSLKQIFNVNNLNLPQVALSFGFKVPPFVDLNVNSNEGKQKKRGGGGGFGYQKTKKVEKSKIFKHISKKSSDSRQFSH
UniProt Q9H4E7, whole entry, looked up: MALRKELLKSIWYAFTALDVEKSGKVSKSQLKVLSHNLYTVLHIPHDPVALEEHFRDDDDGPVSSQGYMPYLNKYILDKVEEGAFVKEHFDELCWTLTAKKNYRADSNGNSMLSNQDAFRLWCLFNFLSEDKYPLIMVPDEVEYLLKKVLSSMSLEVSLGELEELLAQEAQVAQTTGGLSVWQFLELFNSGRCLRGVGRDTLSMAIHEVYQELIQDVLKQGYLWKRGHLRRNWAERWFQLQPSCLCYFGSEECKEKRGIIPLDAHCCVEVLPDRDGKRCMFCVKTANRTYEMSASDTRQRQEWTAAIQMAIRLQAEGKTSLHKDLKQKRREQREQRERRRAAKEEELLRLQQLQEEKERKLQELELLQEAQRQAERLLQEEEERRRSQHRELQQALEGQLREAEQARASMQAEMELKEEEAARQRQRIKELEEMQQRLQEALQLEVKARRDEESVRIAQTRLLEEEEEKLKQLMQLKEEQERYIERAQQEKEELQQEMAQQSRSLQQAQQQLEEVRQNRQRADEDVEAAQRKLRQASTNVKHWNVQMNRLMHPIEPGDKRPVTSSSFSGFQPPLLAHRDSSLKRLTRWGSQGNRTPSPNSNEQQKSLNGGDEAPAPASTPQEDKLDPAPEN
UniProt P17844: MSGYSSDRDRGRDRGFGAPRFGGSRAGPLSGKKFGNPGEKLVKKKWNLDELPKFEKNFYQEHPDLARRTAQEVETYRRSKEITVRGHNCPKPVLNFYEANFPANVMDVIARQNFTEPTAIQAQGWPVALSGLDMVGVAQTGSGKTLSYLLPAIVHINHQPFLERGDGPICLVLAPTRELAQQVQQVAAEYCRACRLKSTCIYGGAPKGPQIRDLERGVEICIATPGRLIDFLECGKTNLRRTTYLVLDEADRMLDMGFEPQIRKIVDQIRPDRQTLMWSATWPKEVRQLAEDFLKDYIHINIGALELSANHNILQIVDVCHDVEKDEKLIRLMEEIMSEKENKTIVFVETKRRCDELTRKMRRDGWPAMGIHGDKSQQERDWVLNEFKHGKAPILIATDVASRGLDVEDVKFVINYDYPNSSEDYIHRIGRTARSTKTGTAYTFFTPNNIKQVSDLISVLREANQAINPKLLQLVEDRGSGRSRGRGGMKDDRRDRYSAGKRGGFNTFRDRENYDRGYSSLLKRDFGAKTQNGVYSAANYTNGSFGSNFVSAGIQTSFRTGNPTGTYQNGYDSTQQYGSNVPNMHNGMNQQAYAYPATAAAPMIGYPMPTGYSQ
UniProt P26196: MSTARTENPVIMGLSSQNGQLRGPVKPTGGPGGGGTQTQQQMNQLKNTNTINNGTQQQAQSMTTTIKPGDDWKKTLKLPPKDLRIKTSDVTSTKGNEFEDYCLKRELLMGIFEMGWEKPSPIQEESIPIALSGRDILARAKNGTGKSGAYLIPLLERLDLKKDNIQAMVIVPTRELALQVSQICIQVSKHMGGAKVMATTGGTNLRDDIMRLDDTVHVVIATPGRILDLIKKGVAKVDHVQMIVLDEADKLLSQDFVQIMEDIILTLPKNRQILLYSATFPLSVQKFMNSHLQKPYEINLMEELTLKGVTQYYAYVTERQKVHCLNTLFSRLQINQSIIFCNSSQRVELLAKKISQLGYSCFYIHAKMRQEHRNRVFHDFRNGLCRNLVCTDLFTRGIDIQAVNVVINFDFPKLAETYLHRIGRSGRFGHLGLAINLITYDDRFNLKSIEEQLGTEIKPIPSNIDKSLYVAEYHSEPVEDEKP
UniProt Q8TB45, whole entry: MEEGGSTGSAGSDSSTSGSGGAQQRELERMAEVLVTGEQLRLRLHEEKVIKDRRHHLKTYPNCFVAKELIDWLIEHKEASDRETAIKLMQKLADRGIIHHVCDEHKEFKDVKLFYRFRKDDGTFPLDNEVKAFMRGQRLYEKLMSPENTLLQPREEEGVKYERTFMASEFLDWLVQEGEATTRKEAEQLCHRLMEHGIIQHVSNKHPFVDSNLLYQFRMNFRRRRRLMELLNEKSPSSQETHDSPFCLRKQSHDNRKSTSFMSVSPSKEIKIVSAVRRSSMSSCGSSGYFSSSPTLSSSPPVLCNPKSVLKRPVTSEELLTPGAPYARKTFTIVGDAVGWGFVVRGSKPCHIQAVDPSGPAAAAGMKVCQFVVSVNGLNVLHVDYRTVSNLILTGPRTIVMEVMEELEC
UniProt Q96GQ7: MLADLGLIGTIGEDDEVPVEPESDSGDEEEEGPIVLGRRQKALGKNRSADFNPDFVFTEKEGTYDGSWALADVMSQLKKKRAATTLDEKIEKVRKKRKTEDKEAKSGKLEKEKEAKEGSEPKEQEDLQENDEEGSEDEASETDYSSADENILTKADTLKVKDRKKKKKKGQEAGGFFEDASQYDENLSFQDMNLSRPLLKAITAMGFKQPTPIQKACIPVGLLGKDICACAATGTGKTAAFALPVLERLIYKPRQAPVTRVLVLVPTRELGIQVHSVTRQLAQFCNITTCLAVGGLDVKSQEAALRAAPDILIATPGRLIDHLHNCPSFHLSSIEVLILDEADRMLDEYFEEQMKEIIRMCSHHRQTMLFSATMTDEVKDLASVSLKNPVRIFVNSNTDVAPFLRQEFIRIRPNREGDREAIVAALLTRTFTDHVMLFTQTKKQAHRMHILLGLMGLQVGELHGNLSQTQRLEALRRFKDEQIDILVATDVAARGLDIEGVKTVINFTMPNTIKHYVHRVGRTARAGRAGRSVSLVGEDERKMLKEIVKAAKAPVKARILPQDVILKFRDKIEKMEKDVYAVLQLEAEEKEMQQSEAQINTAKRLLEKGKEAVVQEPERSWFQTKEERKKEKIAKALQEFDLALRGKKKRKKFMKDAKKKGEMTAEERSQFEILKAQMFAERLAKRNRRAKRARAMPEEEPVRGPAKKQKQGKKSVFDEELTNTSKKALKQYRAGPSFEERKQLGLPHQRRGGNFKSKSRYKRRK
UniProt Q9BQ39: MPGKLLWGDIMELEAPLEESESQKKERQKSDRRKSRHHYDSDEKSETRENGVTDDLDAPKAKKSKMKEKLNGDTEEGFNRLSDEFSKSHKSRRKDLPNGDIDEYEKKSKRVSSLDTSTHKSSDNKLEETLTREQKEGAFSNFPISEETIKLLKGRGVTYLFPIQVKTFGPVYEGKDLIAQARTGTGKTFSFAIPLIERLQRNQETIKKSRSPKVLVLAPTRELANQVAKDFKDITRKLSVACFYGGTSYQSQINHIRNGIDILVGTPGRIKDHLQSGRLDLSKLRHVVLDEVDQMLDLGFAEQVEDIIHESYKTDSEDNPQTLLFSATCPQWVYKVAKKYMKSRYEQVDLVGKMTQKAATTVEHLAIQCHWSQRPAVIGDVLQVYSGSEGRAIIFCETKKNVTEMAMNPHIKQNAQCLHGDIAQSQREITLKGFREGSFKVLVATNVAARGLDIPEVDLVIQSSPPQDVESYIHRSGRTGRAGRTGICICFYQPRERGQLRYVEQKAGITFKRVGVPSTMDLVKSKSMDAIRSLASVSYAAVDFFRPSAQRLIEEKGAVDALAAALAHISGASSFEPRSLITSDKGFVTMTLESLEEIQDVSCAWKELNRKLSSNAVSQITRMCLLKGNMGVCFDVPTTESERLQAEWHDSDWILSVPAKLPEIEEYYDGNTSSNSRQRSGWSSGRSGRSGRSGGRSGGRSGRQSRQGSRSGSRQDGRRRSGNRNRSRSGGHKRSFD
UniProt Q8IV53: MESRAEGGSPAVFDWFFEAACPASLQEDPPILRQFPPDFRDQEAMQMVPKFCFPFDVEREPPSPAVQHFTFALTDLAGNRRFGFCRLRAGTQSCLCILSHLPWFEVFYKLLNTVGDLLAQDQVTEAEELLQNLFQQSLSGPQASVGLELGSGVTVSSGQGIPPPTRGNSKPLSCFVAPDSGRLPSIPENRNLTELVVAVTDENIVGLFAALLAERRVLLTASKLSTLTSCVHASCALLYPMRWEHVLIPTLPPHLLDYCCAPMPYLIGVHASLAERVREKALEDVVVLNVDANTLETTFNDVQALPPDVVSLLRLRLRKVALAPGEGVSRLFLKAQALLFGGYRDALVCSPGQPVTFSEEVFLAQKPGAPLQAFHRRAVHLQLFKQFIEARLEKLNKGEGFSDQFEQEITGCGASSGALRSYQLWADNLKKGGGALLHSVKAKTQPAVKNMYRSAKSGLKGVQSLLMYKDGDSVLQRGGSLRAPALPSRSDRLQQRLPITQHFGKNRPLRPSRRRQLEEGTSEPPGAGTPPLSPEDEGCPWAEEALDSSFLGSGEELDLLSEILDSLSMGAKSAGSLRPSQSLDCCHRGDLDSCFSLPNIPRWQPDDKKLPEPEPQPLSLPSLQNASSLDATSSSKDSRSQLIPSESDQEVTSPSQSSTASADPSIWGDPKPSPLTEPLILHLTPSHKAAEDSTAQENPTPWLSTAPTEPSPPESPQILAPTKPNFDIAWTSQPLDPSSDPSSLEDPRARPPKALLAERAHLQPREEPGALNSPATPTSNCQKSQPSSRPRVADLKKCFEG

Compound: Cc1cc(ccc1-c1ccccc1)C(=O)N1CCCN(CC1)C(=O)CCl [compound 10]
Experiment: probe-labelled cysteine peptide fold change vs DMSO (competition) (log2 fold change); higher = less target engagement (more negative = stronger competition)
Conditions: THP-1, incubation time: 4 h
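Further: competitive profiling in live THP-1 cells: cysteine peptides tagged with an iodoacetamide desthiobiotin (IA-DTB) probe, intensity after compound treatment relative to DMSO-treated cells.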

| Target | probe-labelled cysteine peptide fold change (10 µM) | probe-labelled cysteine peptide fold change (50 µM) |
| --- | --- | --- |
| DDX17_Q92841_199_PVFAFHHANFPQYVMDVLMDQHFTEPTPIQCQGFPLALSGR (UniProt Q92841) | 0.131 | 0.291 |
| DDX21_Q9NR30_418_CHWTQR (UniProt Q9NR30) | 0.219 | 0.343 |
| DDX21_Q9NR30_539_TGVCICFYQHK (UniProt Q9NR30) | 0.0095 | -0.0702 |
| DECR1_Q16698_86_GMTTLLSSLGAQCVIASR (UniProt Q16698) | 0.251 | 0.213 |
| DDX21_Q9NR30_445_TIIFCETKK (UniProt Q9NR30) | 0.0956 | -0.0526 |
| DGKZ_Q13574_1050_YLLDHAPPEILDAVEENGETCLHQAAALGQR (UniProt Q13574) | 0.0481 | 0.0635 |
| DDX18_Q9NVP1_407_ANATVDGLEQGYVVCPSEK (UniProt Q9NVP1) | -0.401 | 0.698 |
| DDX17_Q92841_431_RCDDLTR (UniProt Q92841) | -0.219 | 0.0768 |
| DGLUCY_Q7Z3D6_418_TQIPILTYQGGSVEAAQAFLCK (UniProt Q7Z3D6) | -0.179 | 0.135 |
| DEF6_Q9H4E7_266_RGIIPLDAHCCVEVLPDRDGK (UniProt Q9H4E7) | 0.179 | -0.143 |
| DDX21_Q9NR30_537+539_TGVCICFYQHK (UniProt Q9NR30) | -0.0316 | -0.0812 |
| DDX5_P17844_234_LIDFLECGK (UniProt P17844) | 0.0124 | -0.0963 |
| DDX6_P26196_324_VHCLNTLFSR (UniProt P26196) | 0.111 | 0.219 |
| DDX17_Q92841_397_DYTQINVGNLELSANHNILQIVDVCMESEK (UniProt Q92841) | 0.106 | -0.0869 |
| DDX5_P17844_89_GHNCPKPVLNFYEANFPANVMDVIAR (UniProt P17844) | -0.207 | -0.128 |
| DEPTOR_Q8TB45_102_GIIHHVCDEHK (UniProt Q8TB45) | -0.156 | -0.375 |
| DDX46_Q7L014_501_GAEIIVCTPGR (UniProt Q7L014) | 0.149 | -0.0069 |
| DDX27_Q96GQ7_316+321_QLAQFCNITTCLAVGGLDVK (UniProt Q96GQ7) | 0.131 | 0.0433 |
| DDX18_Q9NVP1_329_NLQCLVIDEADR (UniProt Q9NVP1) | 0.137 | 0.39 |
| DDX50_Q9BQ39_417_QNAQCLHGDIAQSQR (UniProt Q9BQ39) | -0.0486 | -0.00294 |
| DENND1C_Q8IV53_781_EEPGALNSPATPTSNCQK (UniProt Q8IV53) | -0.276 | -0.159 |
| DGCR8_Q8WYQ5_91_LLIDPNCSGHSPR (UniProt Q8WYQ5) | -0.107 | -0.0445 |
| DEF6_Q9H4E7_246_WFQLQPSCLCYFGSEECK (UniProt Q9H4E7) | 0.0146 | -0.0268 |
